Results published in the supplement of paper PMC3334620.
The full ranking holds about 33,000 sequences; the median of “E-score (-0.5 to 0.5)” is about -0.0014, and the highest 2% start at about 0.25. The list shows a part of the results.

The sequences below were run against T1, Cad1 (UniProt P24813) (assay: PBM E-score (8-mer binding enrichment) (E-score (-0.5 to 0.5)); higher = stronger / more preferred TF binding). Settings: protein concentration: 100 nM; construct: GST-full length.
T1 sequence: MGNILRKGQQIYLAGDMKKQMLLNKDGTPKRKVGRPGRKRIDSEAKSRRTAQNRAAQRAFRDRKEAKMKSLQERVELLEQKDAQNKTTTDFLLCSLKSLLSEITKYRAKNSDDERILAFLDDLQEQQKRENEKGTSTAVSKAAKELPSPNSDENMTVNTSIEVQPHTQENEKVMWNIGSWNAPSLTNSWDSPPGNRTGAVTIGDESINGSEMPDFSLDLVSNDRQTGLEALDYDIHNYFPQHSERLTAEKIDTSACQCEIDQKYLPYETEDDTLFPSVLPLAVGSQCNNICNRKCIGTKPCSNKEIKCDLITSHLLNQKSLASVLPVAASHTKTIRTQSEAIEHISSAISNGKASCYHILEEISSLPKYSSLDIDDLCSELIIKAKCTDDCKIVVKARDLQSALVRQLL
Method in brief: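 The E-score, a modified Wilcoxon-Mann-Whitney statistic, was computed by the Universal PBM Analysis Suite for every ungapped eight-base word pooled with its reverse complement. Scans behind it were normalised with masliner after bound GST-tagged yeast transcription factors were detected with fluorescent anti-GST. The proteins, at about 100-200 nM, had been applied to universal all-10-mer Agilent arrays made double-stranded by primer extension.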

| Sequence | PBM E-score |
| --- | --- |
| TAATGTAA | 0.246 |
| AGCAGCCA | -0.0686 |
| CAAGAAAA | 0.143 |
| CAATGGAG | -0.128 |
| TACCCGCA | 0.0306 |
| AGTCACCG | -0.0721 |
| GCTTACAA | 0.308 |
| AGCCTCGA | 0.00096 |
| AAAGGGAT | -0.0646 |
| AGAAAGCC | -0.051 |
| CGTTCTAC | -0.148 |
| ACCCGCGG | 0.167 |
| CTCTCCTC | -0.352 |
| AAAGGGAA | -0.205 |
| GGGGGAAA | -0.152 |
| CTAAATGC | 0.0465 |
| CAAATACG | 0.191 |
| CGGGGTTC | -0.0658 |
| AACGAATG | 0.199 |
| CAGTATAC | 0.0126 |
| CGCCGAGC | -0.0246 |
| CCTTGTGC | -0.242 |
| GAGGTTAC | -0.0416 |
| CGTAGACA | -0.064 |

| Sequence | PBM E-score |
| --- | --- |
| TGCCCCAA | -0.0102 |
| GAAAATAC | 0.121 |
| GGAGCCCC | -0.216 |
| CAAAGAGC | -0.0525 |
| CTTTTCAA | 0.0868 |
| ATTCAGCA | 0.13 |
| GGCGCCCA | 0.089 |
| CTGGTGGA | -0.0943 |
| AAATCATG | 0.182 |
| CCGTAAAG | 0.0405 |
| TCCCCCGA | -0.369 |
| ATACTGAG | 0.164 |
| CATGTCAC | 0.0823 |
| AATCGATG | 0.271 |
| AAAGGTAC | 0.0692 |
| ATGCGAAG | 0.0556 |
| CCAAAATA | 0.147 |
| GATGGTTA | -0.0274 |
| CAGACAAG | 0.115 |
| AAATCGAA | -0.156 |
| CCAGGAGG | -0.168 |
| CAGGCCAG | 0.104 |
| AGGTTGCA | 0.159 |
| ATCCGAGG | 0.0713 |

20 entries from above, set out differently:
Sequence,PBM E-score
CTTTTCAA,0.0868
ATTCAGCA,0.13
GGCGCCCA,0.089
CTGGTGGA,-0.0943
AAATCATG,0.182
CCGTAAAG,0.0405
TCCCCCGA,-0.369
ATACTGAG,0.164
CATGTCAC,0.0823
AATCGATG,0.271
AAAGGTAC,0.0692
ATGCGAAG,0.0556
CCAAAATA,0.147
GATGGTTA,-0.0274
CAGACAAG,0.115
AAATCGAA,-0.156
CCAGGAGG,-0.168
CAGGCCAG,0.104
AGGTTGCA,0.159
ATCCGAGG,0.0713

Next part:

| Sequence | PBM E-score |
| --- | --- |
| CAACAGAA | -0.107 |
| ATTAGAAG | -0.0342 |
| GCTCCGCC | -0.0179 |
| ACTGTTAG | -0.0202 |
| AGTCTACC | -0.0892 |
| AGGGACCA | -0.242 |
| GCATAGAC | -0.0038 |
| AGAAACAT | 0.0746 |
| ACGTTCGG | -0.209 |
| GCACGAGC | -0.0959 |
| CGAAGTGA | 0.0764 |
| ACAAGTGA | -0.155 |
| CACTAACC | 0.0546 |
| AGGACAGC | 0.00989 |
| GACACCCC | -0.265 |
| AGCGCGCC | 0.082 |
| GCGTACTA | 0.0803 |
| ATGAGCAA | 0.0977 |
| AAGACGAT | 0.0121 |
| CCAACGGA | -0.11 |
| ACCGCGTA | 0.0865 |
| AACGATCT | 0.0386 |
| GCTACTCA | -0.0295 |
| ATACAGGA | 0.182 |

Some of the entries so far, as labelled records:
AAAGGTAC
  PBM E-score = 0.0692
AGCGCGCC
  PBM E-score = 0.082

Remaining list, next part.

| Sequence | PBM E-score |
| --- | --- |
| AGCGCACT | -0.0706 |
| ACCATCGG | -0.248 |
| CTCAACTC | 0.14 |
| CCGGTCAC | -0.0687 |
| AGAAACTC | -0.0188 |
| CAACTTTC | 0.0512 |
| GAGAGGTA | -0.259 |
| CGGTGCAG | -0.082 |
| ACCTCTAC | 0.0344 |
| GGACCCCA | -0.0361 |
| CTCTTTGC | -0.0833 |
| AACAGTTC | 0.126 |
| GTTAACAA | 0.164 |
| GAAGAGAA | 0.0123 |
| ATAGGAGC | -0.203 |
| AATTTCGA | 0.116 |
| AAGACGGA | 0.0167 |
| TATCTGAA | 0.00867 |
| CTCGACCC | -0.00772 |
| CCTAATTC | -0.115 |
| ATAGGCTA | -0.0705 |
| AAAAACCG | 0.128 |
